These are yes or no findings as the source states them, for the method shown. In cells and extracts the contact can be indirect. Some results given as binding are weak or reduced against the parent protein; the word gives no strength.
How the values were obtained:
[1] = target: T1, thioredoxin-interacting protein (human (endogenous in HaCaT)) (UniProt Q9H3M7); experiment: co-IP; HaCaT keratinocyte lysate in NP buffer (1 mg protein), precleared with A/G agarose beads; 1 ug TXNIP antibody overnight at 4 °C, protein A/G agarose; Western blot for NLRP3; cells with or without UV radiation and PT, EVE or PT and EVE treatment
T1 sequence: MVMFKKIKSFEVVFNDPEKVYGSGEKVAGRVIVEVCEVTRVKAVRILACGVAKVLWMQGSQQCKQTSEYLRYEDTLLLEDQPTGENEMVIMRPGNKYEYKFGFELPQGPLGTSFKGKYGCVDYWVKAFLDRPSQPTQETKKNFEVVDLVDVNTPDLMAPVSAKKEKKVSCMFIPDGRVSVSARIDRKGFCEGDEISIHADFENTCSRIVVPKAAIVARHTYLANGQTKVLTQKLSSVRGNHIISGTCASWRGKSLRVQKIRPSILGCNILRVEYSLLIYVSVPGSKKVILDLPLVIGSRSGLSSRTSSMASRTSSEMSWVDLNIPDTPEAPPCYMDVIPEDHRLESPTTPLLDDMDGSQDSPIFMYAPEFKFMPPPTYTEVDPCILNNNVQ

Sequences of proteins named here, by UniProt entry; tags and fusion partners are left off.
UniProt Q96P20: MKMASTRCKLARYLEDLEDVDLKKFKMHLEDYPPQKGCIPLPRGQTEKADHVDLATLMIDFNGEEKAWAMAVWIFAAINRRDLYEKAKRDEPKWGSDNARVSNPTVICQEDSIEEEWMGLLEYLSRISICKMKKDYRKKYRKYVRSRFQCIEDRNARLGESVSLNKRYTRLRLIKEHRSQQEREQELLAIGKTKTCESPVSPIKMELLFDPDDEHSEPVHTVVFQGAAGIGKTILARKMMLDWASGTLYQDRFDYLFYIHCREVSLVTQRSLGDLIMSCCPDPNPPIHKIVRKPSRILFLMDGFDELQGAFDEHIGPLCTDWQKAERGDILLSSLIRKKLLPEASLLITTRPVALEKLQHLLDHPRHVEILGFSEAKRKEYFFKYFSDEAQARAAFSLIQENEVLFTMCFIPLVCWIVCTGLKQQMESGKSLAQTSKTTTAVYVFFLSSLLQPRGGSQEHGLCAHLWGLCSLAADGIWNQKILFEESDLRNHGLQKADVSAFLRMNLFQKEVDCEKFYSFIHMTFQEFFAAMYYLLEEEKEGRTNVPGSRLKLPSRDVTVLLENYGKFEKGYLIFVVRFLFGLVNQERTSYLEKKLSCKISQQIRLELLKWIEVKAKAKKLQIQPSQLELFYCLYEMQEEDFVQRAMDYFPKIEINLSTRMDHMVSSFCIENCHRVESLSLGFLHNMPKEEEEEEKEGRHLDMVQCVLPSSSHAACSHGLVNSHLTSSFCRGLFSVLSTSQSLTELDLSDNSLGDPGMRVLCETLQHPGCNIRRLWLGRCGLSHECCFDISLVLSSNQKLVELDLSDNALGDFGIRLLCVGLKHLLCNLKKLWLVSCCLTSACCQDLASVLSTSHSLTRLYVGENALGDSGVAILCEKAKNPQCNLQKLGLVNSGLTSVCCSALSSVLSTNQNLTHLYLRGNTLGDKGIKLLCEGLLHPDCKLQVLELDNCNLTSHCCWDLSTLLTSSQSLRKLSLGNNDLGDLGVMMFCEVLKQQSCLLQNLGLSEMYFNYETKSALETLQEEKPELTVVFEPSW
UniProt Q8R4B8: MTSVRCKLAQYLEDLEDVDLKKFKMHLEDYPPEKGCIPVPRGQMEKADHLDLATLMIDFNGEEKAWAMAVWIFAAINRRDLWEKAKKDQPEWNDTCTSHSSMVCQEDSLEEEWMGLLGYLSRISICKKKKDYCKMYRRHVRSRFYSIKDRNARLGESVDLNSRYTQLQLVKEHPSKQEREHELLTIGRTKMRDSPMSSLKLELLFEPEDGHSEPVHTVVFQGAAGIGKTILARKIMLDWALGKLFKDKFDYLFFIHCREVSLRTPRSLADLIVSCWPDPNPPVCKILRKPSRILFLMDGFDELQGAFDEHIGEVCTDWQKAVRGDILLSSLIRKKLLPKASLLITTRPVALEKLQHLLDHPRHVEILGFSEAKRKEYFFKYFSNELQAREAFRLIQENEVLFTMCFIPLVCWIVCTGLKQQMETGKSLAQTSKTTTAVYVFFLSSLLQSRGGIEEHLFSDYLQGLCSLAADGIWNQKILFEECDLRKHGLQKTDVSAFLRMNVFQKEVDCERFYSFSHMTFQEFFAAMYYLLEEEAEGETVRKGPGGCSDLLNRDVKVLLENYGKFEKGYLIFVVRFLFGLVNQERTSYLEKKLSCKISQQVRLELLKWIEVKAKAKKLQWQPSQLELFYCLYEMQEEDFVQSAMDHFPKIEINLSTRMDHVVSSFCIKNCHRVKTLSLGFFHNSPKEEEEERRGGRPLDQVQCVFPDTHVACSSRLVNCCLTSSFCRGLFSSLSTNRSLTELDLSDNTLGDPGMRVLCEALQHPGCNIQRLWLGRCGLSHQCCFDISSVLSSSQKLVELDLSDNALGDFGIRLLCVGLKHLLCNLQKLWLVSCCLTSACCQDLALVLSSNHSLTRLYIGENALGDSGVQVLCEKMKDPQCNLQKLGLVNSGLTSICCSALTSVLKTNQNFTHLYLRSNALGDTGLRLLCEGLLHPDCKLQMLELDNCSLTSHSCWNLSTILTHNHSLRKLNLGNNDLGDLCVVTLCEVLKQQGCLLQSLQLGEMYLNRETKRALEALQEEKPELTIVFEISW

[2] = target: T2, thioredoxin-interacting protein (mouse skin) (mouse (endogenous in mouse skin)) (UniProt Q8BG60); experiment: co-IP; mouse skin homogenate in NP buffer (1 mg protein), precleared with A/G agarose beads; 1 ug TXNIP antibody overnight at 4 °C, protein A/G agarose; Western blot for NLRP3; mice with or without UV radiation and PT, EVE or PT and EVE treatment
T2 sequence: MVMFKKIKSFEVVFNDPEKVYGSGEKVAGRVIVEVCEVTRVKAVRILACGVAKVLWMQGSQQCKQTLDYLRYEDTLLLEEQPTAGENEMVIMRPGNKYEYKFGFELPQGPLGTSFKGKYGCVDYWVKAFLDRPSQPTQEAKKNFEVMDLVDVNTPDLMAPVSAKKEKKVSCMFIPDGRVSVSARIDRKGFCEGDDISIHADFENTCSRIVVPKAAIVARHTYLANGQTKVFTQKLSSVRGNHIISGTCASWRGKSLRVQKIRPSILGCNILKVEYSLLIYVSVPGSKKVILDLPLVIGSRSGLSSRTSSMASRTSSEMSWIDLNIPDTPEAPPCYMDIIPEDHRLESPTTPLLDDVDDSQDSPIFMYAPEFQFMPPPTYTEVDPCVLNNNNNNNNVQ

binding [1] | binding [2] | Substance
binds |  | nucleotide-binding oligomerization domain-like receptor family pyrin domain containing 3 (from UniProt Q96P20 1-1036)
 | binds | nucleotide-binding oligomerization domain-like receptor family pyrin domain containing 3 (mouse skin) (from UniProt Q8R4B8 1-1033)

Source: publication PMC11047619
